Not every detail of the peptide structures is certain; ends, links or a residue may be inferred.
Tests used:
[1] = system: isolated, perfused guinea pig lung; test: Vasoconstrictor (agonist) activity, isolated perfused lung preparation, pulmonary artery pressure; conditions: Et-3 (10^-9 M)
Procedure: Isolated, Perfused Guinea Pig Lung: Another procedure for determining the vasoconstrictor action of the endothelin-active peptides and the blocking action of endothelin antagonists utilizes isolated, perfused guinea pig lung as described in more detail in Example 4, infra.
The vasoconstrictor activity of Et-1 or Et-3 alone, or in the presence of antagonist, was determined using an isolated, perfused lung preparation (Horgan, M. J., et al. J. Appl. Phsysiol., 63, 93-104 (1987)). Briefly, Hartley guinea pigs (400-500 g) of either sex were anesthetized with 50 mg/kg pentobarbital sodium. Following a tracheotomy, the thorax was opened, the lung and heart excised and the pulmonary artery cannulated. A wide cannula was placed in the left atrium. Perfusion was then started, within 5 min. of opening the thorax. The perfusion flow was set at 28 ml/min. When there was no visible sign of blood in the pulmonary venous effluent, recirculation of the perfusate was started, and pulmonary artery pressure was monitored. Endothelin activity was measured in an accumulative dose-dependent manner for agonist activity by addition of the peptides to a recirculating 300 ml bath. To assess antagonist activity, dose response curves with endothelin were done in the constant presence of antagonist.

vascular beds = conditions: a number of vascular beds; Anggard et al.; cited from earlier work

## CC[C@H](C)[C@H](NC(=O)[C@H](CC(=O)O)NC(=O)[C@H](CC(C)C)NC(=O)[C@H](Cc1c[nH]cn1)NC(=O)[C@@H]1CSSC[C@H](N)C(=O)N[C@@H]([C@@H](C)O)C(=O)N[C@H]2CSSC[C@H](NC(=O)[C@H](CCC(=O)O)NC(=O)[C@H](CCCCN)NC(=O)[C@H](CC(=O)O)NC(=O)[C@H](CCCCN)NC(=O)[C@H](Cc3ccc(O)cc3)NC(=O)[C@H]([C@@H](C)O)NC(=O)[C@H](Cc3ccccc3)NC2=O)C(=O)N[C@@H](C(C)C)C(=O)N[C@@H](Cc2ccc(O)cc2)C(=O)N[C@@H](Cc2ccc(O)cc2)C(=O)N1)C(=O)N[C@H](C(=O)N[C@@H](Cc1c[nH]c2ccccc12)C(=O)O)[C@@H](C)CC [Et-3]
[1]
  Ppa Without antagonist: 3.8 cm H2 O
Vascular beds
  apparent potency order of vasoconstriction: Et-2>Et-1>Et-3
